Source: paper PMC6016456, “Human DHEA sulfation requires direct interaction between PAPS synthase 2 and DHEA sulfotransferase SULT2A1” (The Journal of Biological Chemistry, 2018)
No constants are given. Whether binding was seen depends on the method and setting. Binding seen in cells or lysates may run through a third protein. Some binding calls cover weakened binding; strength is not graded here.

Target: T1, PAPS synthase 1 (human (endogenous in HepG2)) (UniProt O43252)
T1 sequence: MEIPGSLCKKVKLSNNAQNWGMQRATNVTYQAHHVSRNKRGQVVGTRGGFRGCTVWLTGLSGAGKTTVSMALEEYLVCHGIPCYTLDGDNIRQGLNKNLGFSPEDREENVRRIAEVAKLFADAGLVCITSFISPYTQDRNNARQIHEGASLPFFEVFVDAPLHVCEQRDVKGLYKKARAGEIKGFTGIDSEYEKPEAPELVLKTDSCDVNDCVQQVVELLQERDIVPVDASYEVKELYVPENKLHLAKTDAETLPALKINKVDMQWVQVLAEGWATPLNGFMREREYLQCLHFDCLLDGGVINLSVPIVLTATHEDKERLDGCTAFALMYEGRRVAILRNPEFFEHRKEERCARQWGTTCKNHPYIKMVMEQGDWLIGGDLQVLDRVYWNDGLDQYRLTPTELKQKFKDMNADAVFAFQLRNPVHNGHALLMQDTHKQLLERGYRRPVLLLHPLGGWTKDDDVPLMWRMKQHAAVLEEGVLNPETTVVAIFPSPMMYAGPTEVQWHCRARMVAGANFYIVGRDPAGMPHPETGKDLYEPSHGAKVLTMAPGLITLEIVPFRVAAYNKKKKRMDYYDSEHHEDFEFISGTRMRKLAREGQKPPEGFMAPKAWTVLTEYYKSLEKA
Assay: proximity ligation; endogenous proteins in fixed, permeabilized HepG2 cells; mouse monoclonal antibodies for PAPSS1 or PAPSS2 and a rabbit polyclonal SULT2A1 antibody; Duolink In Situ PLA; foci per cell counted with CellProfiler, at least 400 cells from three experiments

binding: binds
B1: DHEA sulfotransferase SULT2A1 (enzyme, UniProt Q06520 1-285)
chain: MSDDFLWFEGIAFPTMGFRSETLRKVRDEFVIRDEDVIILTYPKSGTNWLAEILCLMHSKGDAKWIQSVPIWERSPWVESEIGYTALSETESPRLFSSHLPIQLFPKSFFSSKAKVIYLMRNPRDVLVSGYFFWKNMKFIKKPKSWEEYFEWFCQGTVLYGSWFDHIHGWMPMREEKNFLLLSYEELKQDTGRTIEKICQFLGKTLEPEELNLILKNSSFQSMKENKMSNYSLLSVDYVVDKAQLLRKGVSGDWKNHFTVAQAEDFDKLFQEKMADLPRELFPWE
